Measurements reported in PubChem BioAssay AID1259424 (University of Nebraska Medical Center, 2018)

Assay: 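Seek colon cancer survival genes behaving like KSR1, using a six-gene signature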 (primary screen)
Cell system: human HCT116 colon cancer cells
Reagents: siRNA pool against human genes, 50 nM
Measurement: 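Six signature mRNAs by branched-DNA multiplex assay, scaled to two housekeeping genes and non-targeting median, log2; matched to mean KSR1 knockdown profile by Pearson correlation and euclidean distance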
Scale: mean correlation with KSR1 profile: higher = expression change more like KSR1 knockdown
In all, the deposit lists about 14,000 reagents; this is a random part of them. 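Higher correlation or smaller distance means closer resemblance to KSR1 loss; control wells, including KSR1 knockdowns, recur on many plates.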 Further read-outs or replicates are left out here. Not stated in the record: the time to read-out.

| gene | PubChem SID | mean correlation with KSR1 profile |
| --- | --- | --- |
| NUP155 (nucleoporin 155) | SID363995292 | -0.383 |
| FBXO6 (F-box protein 6) | SID364001071 | -0.196 |
| CXCL11 (C-X-C motif chemokine ligand 11) | SID363996315 | -0.037 |
| TEX13B (testis expressed 13B) | SID364003563 | -0.685 |
| DRD5 (dopamine receptor D5) | SID363992088 | 0.449 |
| ADGRG4 (adhesion G protein-coupled receptor G4) | SID364004788 | 0.572 |
| CRADD (CARD and death domain containing adaptor protein) | SID363994868 | -0.385 |
| GRAMD4 (GRAM domain containing 4) | SID364005031 | -0.707 |
| MXRA8 (matrix remodeling associated 8) | SID364003932 | 0.0345 |
| SLC4A3 | SID363996007 | -0.346 |
| MTMR10 (myotubularin related protein 10) | SID364000507 | -0.849 |
| OR3A3 (olfactory receptor family 3 subfamily A member 3) | SID363998265 | 0.726 |
| PM20D2 (peptidase M20 domain containing 2) | SID364005253 | 0.386 |
| UBE2H (ubiquitin conjugating enzyme E2 H) | SID363994460 | 0.0684 |
| PTPN22 (protein tyrosine phosphatase non-receptor type 22) | SID363998296 | -0.0559 |
| MED23 (mediator complex subunit 23) | SID363995783 | 0.615 |
| SULT1A2 (sulfotransferase family 1A member 2) | SID363992351 | -0.243 |
| ZNF706 (zinc finger protein 706) | SID363999867 | -0.0882 |
| CIDEC (cell death inducing DFFA like effector c) | SID364002322 | -0.241 |
| SERPING1 (serpin family G member 1) | SID363991399 | -0.347 |
| ADAMTS17 (ADAM metallopeptidase with thrombospondin type 1 motif 17) | SID364004593 | -0.616 |
| ASGR2 (asialoglycoprotein receptor 2) | SID363992471 | -0.318 |
| AK9 (adenylate kinase 9) | SID364004638 | 0.515 |
| KCNA2 (potassium voltage-gated channel subfamily A member 2) | SID363995915 | -0.175 |
| CD53 (CD53 molecule) | SID363991882 | -0.254 |
| BCO1 (beta-carotene oxygenase 1) | SID364000308 | -0.542 |
| PCDHB9 (protocadherin beta 9) | SID364001416 | 0.0178 |
| NDN (necdin, MAGE family member) | SID363993660 | 0.763 |
| RABGGTA (Rab geranylgeranyltransferase subunit alpha) | SID363995552 | -0.442 |
| PDHA2 (pyruvate dehydrogenase E1 subunit alpha 2) | SID363996300 | 0.526 |
| TRIM36 (tripartite motif containing 36) | SID364001191 | 0.599 |
| NEK10 (NIMA related kinase 10) | SID364004726 | 0.461 |
| NSD2 (nuclear receptor binding SET domain protein 2) | SID363997982 | 0.301 |
| ZNF614 (zinc finger protein 614) | SID364003215 | 0.178 |

Quoted from the listing (4 entries):
| gene | PubChem SID | mean correlation with KSR1 profile |
| --- | --- | --- |
| CXCL11 (C-X-C motif chemokine ligand 11) | SID363996315 | -0.037 |
| TEX13B (testis expressed 13B) | SID364003563 | -0.685 |
| DRD5 (dopamine receptor D5) | SID363992088 | 0.449 |
| ADGRG4 (adhesion G protein-coupled receptor G4) | SID364004788 | 0.572 |
